Measured values from paper PMC10425460.
No constants are given. Whether binding was seen depends on the method and setting. In cells and extracts the contact can be indirect. Some entries that bind do so weakly or less than the wild type. Tags and fused reporters may be left off the sequences shown.

Biological target: T1, cYFP-VAP27-1 (Arabidopsis thaliana) (UniProt Q8VZ95)
T1 sequence: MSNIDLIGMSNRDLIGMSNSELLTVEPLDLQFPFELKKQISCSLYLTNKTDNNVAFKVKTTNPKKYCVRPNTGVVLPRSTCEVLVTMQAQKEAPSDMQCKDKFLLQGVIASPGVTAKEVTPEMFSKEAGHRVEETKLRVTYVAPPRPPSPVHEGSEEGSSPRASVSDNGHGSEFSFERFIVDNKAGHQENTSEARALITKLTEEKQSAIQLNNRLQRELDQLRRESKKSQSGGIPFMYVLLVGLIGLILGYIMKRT
Assay: split reporter; BiFC: nYFP fusions of Exo84 isoforms (pCL112-nYFP) and cYFP fusions of VAP27-1/-3 (pCL113-cYFP) transiently co-expressed in N. benthamiana leaf cells; YFP fluorescence by confocal microscopy

Row | Binder | binding
1 | nYFP-Exo84c (protein, UniProt Q9SY60 1-769) MESSEEDDEYPFIESITPQSKIDSVHQSLTEKGIRKLCCELMDLKDAVENMCGDMRTKYLAFLRISEEAVEMEHELVELRKHISSQGILVQDLMAGVCREMDDWNRLPGDVHDAEVEEDPLPNEVTDPKSEFLEKIDLLLAEHKVDEALEAMDAEERSSPDLKGSVEMSSYKSAFMERKAVLEDQLLRIAKQPSICVAELKHALIGLIRLGKGPSAHQLLLKFYATSLRRRIEAFLPSCLTCPNTFPATLSKLVFSNISVATKESAAMFGDDDNPAYSNKVVQWAEREVEYLVRLVKENASPSETASALRAASICLQDCLNYCKVLEPQGLFLSKLFLVLFRPYVEEVLELNFRRARRVIFDLNETDEGLESPSDFVTILSEFAIASDTMMTDCSIRFMQIVQDILEQLTHLVVLHFGESVLTRILQLYDKYIDFLIKALPGHSDEDGLPELQDNTVLARAETDSEQLALLGAAFTILDELLPRSLVKVWKLQIENGGGEGENSAALNSSAAPELKEWKRHMVQAFDKLRNYFCLQFVLSFIYSREGLTRLDALIYLTETPDDLHLPSLPFQALFSKLQQLAIIAGDVLLGKEKLQKILLARLTETVIIWLSNEQEFWSAFEDESNPLQPSGLQQLILDMNFTVEIARFAGYPFKVVQNHASVVINRAINIFSERGINPQSSLPKTEWFTEAAKSAINRLLMGSEDASEPEEYECEEEEEDDHHIVLPEMDDDSDSEDTSSLSTVDSFESFASASMADLESPSFTDSES | binds
2 | nYFP-fused Exo84a (BiFC construct) (protein, UniProt F4I4B6 1-754) MEARERGSMSSSIGNSAELEGNLTLSDRLKVFKGSTFDPDAYVTSKCQRMNEKETRHLSSYLVELKKASAEEMRKSVYANYAAFIRTSKEISALEGQLLSMRNLLSAQAALVHGLADGVHISSLCADDADDLRDEDLYDMDNKQLSNIENWVVEFFDRLEVLLAEKRVEESMAALEEGRRVAVEAHEKRTLSPTTLLSLNNAIKEKRQELADQLAEAISQPSTRGGELRSAVLSLKKLGDGSRAHTLLLRSYERRLQANIQSLRASNTSYGVAFAAALSQLVFSTIAQAASDSQAVVGEDPAYTSELVTWAVKQAESFALLLKRHTLASSAAAGSLRVTAECVQLCASHCSSLESRGLALSPVLLKHFRPGVEQALTGNLKRIEQSSAALAASDDWSLSYTPTGSRASSTTPTAPHLKLSISAQRFNSMVQEFLEDAGPLDEALQLDGIALDGVLQVFNSYVDLLINALPGSAENEENPVHRIVKVAETESQQTALLVNALLLADELIPRSASRILPQGTSQSTPRRGSSDRQNRPEQREWKKKLQRSVDRLRDSFCRQHALELIFTEEGEVRLSSEIYILMDETTEEPEWFPSPIFQELFAKLTRIAMIVSDMFVGRERFATILLMRLTETVILWISDDQSFWEEMETGDKPLGPLGLQQFYLDMEFVMIFASQGRYLSRNLHQVIKNIIARAVEAVSATGLDPYSTLPEEEWFAEVAQIAIKMLMGKGNFGGHGERDVTSPSVSSAKSYTSN | no binding
3 | nYFP-fused Exo84b (BiFC construct) (protein, UniProt Q9LTB0 1-752) MAAKTARSKATPTKENGVRVEEGLSLFKSDKFDADAYVQSKCSINEKDIKQLCSYLLDLKRASAEEMRRSVYANYPAFIRTSKEISDLEGELSSIRNLLSTQATLIHGLADGVNIDDDKVSDESLANGLLNFEDNGLSDLEKWATEFPDHLDALLAERRVDEALAAFDEGEILVSQANEKHTLSSSVLSSLQFAIAERKQKLADQLAKAACQPSTRGGELRSAIAALKRLGDGPRAHTVLLDAHFQRYQYNMQSLRPSSTSYGGAYTAALSQLVFSAISQASSDSLGIFGKEPAYSSELVTWATKQTEAFSLLVKRHALASSAAAGGLRAAAECAQIALGHCSLLEARGLSLCPVLLKHFKPIVEQALEANLKRIEENTAAMAAADDWVLTSPPAGSRHASTAFQNKLTSSAHRFNLMVQDFFEDVGPLLSMQLGSKALEGLFRVFNSYVDVLVRALPGSIEEEDPNFESSCNKIVQMAETEANQLALLANASLLADELLPRAAMKLSLDQTGQRTDDLRRPLDRQNRNPEQREWKRRLLSTVDKLKDAFCRQHALDLIFTEEGDSHLSADMYVNIDENGEDVDFFPSLIFQELFAKLNRMASLAADMFVGRERFAISLLMRLTETVILWLSGDQSFWDDIEEGPRPLGPLGLRQLYLDMKFVICFASQGRYLSRNLHRGTNEIISKALAAFTATGIDPYSELPEDDWFNDICVDAMERLSGKTKGNNGDVHSPTASVSAQSVSSARSHGSY | no binding
